Results published in PubChem BioAssay AID2685 (National Center for Advancing Translational Sciences (NCATS), 2010).
In all, about 320,000 compounds went through this assay and about 2,100 (0.66%) were called active. The shares of active, inactive and inconclusive entries below differ from those in the screen. Calls come from the whole dose curve; as a rule, active = well fitted inhibition curve with a large enough effect in the signal ratio, with a control signal flat (not every such curve was filed as active); inconclusive = small, poorly fitted or top-dose-only effect, or effect the other way, or a change in a side signal; inactive = flat fitted curve, though single readings scatter; the % refers to the signal ratio. Potencies beside an inconclusive call are fits to weak or partial responses and may not hold up.

Test: qHTS Assay for Lipid Storage Modulators in Drosophila S3 Cells
Conditions: BODIPY lipid droplet fluorescence, 18-24 h, cells fed with added oleic acid; lipid storage change, negative = inhibition: at 46.1 µM (top of the series) unless noted
Method in brief: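 Drosophila S3 cells loaded with oleic acid (400 uM, as added) and compounds at several concentrations; lipid droplets imaged by 488-nm laser-scanning cytometry, 500–530 nm intensity and object ratio to cell channel. Percent activity normalized to 20 uM Triacsin C.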
% is set by controls: 0 for no effect and ±100 for the full control effect; potency is the fitted concentration of half-maximal effect.

Row | Structure (SMILES) | Potency | lipid storage change, negative = inhibition
1 | COc1ccc(-c2cn(Cc3ccc(C(N)=O)cc3)c(CCN)n2)cc1 | inconclusive: 29.1 µM [activator, partial curve, poor fit] | 
2 | CCC(=O)N1CCN(c2nc3ccccc3s2)CC1 |  | inconclusive: 321%
3 | O=C(Nc1ccc(F)cc1)/C(Cl)=C/c1ccccc1 |  | inconclusive: -34.1% [cytotoxic] [at 0.369 µM]
4 | CCCCN(C(=O)c1ccc(N2CCCC2=O)cc1)c1c(N)n(Cc2ccccc2)c(=O)[nH]c1=O |  | inconclusive: -4.97%
5 | CCC(C)(C)C1CCc2c(sc(N)c2C(N)=O)C1 (centres undefined) | inconclusive: 0.206 µM [falling, full curve, poor fit] | 
6 | COc1cc2ccccc2cc1C(=O)N(CCN(C)C)c1nc2c(C)cccc2s1 |  | inconclusive: 47.1%
7 | CCN(CC)CCNc1ncnc2c1sc1nc(N3CCCC3)c3c(c12)CC(C)(C)OC3 |  | inconclusive: 7.87%
8 | Cc1ccc(S(=O)(=O)N(C)c2ccccc2C(=O)Nc2ccc(F)cc2F)cc1 | inconclusive: 29.1 µM [falling, single point] | 
9 | Nc1nc2ccc(C(=O)NC3CCCCC3)cc2s1 |  | inconclusive: 28.9%
10 | NC(=O)N/N=C/c1c(O)ccc2oc3c(c12)CCCC3 |  | inconclusive: 22.2%
11 | O=C(NC(=S)NNC(=O)c1ccco1)c1ccc(Br)cc1 |  | inconclusive: -9%
12 | O=C(N/N=C/c1ccccn1)c1cc(-c2ccc(Cl)s2)[nH]n1 |  | inconclusive: -174%
13 | C[C@]12C(=O)N(c3ccc(Cl)cc3)C(=O)N1[C@H]1c3ccccc3OC[C@@H]1[C@H]2c1ccccc1 |  | inconclusive: 28%
14 | COc1ccc(/C=C/C(=O)NC(=S)N2CCCC(C(N)=O)C2)cc1 (centres undefined) |  | inconclusive: 471%
15 | CCCOc1ccc(CC(=O)NNC(=S)Nc2ccccc2)cc1Br |  | inconclusive: -12.1%
16 | Cc1csc(CNC(=O)c2ccc(OC3CCN(CCc4ccccc4)CC3)cc2)n1 |  | inconclusive: 110%
17 | COC(=O)c1cc(N=Nc2c(C)[nH]c3ccccc23)cc(C(=O)OC)c1 | inconclusive: 0.13 µM [activator, full curve, poor fit] | 
18 | COc1ccccc1-c1cc(C(=O)Nc2cc(C)on2)no1 |  | inconclusive: 25.6%
19 | COc1cc2c(C(=O)NCc3ccccn3)cn(C)c(=O)c2cc1OC |  | inconclusive: 23%
20 | O=C(O/N=C\c1ccc(N2CCOCC2)c([N+](=O)[O-])c1)c1ccccc1Cl |  | inconclusive: -5.08%
21 | CC(=O)Nc1ccc(NS(=O)(=O)c2cccc3nonc23)cc1 |  | inconclusive: -34.6%
22 | Cc1ccc(NC(=O)N2CCN(C/C=C/c3ccccc3)CC2)cc1 |  | inconclusive: -62.8%
23 | O=C(Nc1cccc(S(=O)(=O)N2CCCCC2)c1)C1CC(=O)N(Cc2ccccc2)C1 (centres undefined) | inconclusive: 18.4 µM [falling, single point] | 
24 | Cc1cc(N/N=C2\CC(C)CC(C)(C)C2)nc2ccccc12 (centres undefined) |  | inconclusive: 6.99%
25 | CCN(CC)C(=O)CN(c1cc2c(cc1OC)oc1ccccc12)S(=O)(=O)c1ccc(C)cc1 | inconclusive: 6.51 µM [activator, partial curve] | 
26 | Cc1ccc(-c2nnn(CC(=O)N3CCN(c4nc5ccccc5s4)CC3)n2)cc1 |  | inconclusive: 17.1%
27 | CN(CC(=O)Nc1ccc(Cl)cc1)S(=O)(=O)c1ccc2c(c1)n(C)c(=O)c(=O)n2C |  | inconclusive: 96.6%

By substructure, those above containing four or more nitrogen atoms.
Row | Structure (SMILES) | Potency | lipid storage change, negative = inhibition
1 | COc1ccc(-c2cn(Cc3ccc(C(N)=O)cc3)c(CCN)n2)cc1 | inconclusive: 29.1 µM [activator, partial curve, poor fit] | 
4 | CCCCN(C(=O)c1ccc(N2CCCC2=O)cc1)c1c(N)n(Cc2ccccc2)c(=O)[nH]c1=O |  | inconclusive: -4.97%
7 | CCN(CC)CCNc1ncnc2c1sc1nc(N3CCCC3)c3c(c12)CC(C)(C)OC3 |  | inconclusive: 7.87%
12 | O=C(N/N=C/c1ccccn1)c1cc(-c2ccc(Cl)s2)[nH]n1 |  | inconclusive: -174%
21 | CC(=O)Nc1ccc(NS(=O)(=O)c2cccc3nonc23)cc1 |  | inconclusive: -34.6%
26 | Cc1ccc(-c2nnn(CC(=O)N3CCN(c4nc5ccccc5s4)CC3)n2)cc1 |  | inconclusive: 17.1%
27 | CN(CC(=O)Nc1ccc(Cl)cc1)S(=O)(=O)c1ccc2c(c1)n(C)c(=O)c(=O)n2C |  | inconclusive: 96.6%

(next part)

Row | Structure (SMILES) | Potency | lipid storage change, negative = inhibition
28 | CCOc1nc(NCc2ccco2)nc(Nc2ccc(OC)cc2)n1 | inconclusive: 8.2 µM [activator, partial curve] | 
29 | CCc1ccc(C(=O)COC(=O)CNC(=O)CNS(=O)(=O)c2ccccc2)cc1 |  | inconclusive: 28.4%
30 | Cc1cc(NCCOCCO)n2c(nc3ccccc32)c1C#N |  | inconclusive: 269%
31 | CC(C)c1ccc(S(=O)(=O)N2CCC(C(=O)NCc3ccco3)CC2)cc1 |  | inconclusive
32 | NS(=O)(=O)c1ccc(CCNC(=O)COC(=O)CC(c2ccccc2)c2ccccc2)cc1 |  | inconclusive: -0.308% [at 9.22 µM]
33 | CC(C)c1ccc(C(=O)NC(=S)NCc2cccnc2)cc1 |  | inconclusive: 0.436%
34 | Cc1ccc(-c2ccccc2NC(=O)CS(=O)CC(=O)Nc2ccc(C)c(Cl)c2)o1 (centres undefined) | active: 23.1 µM | 
35 | CCCNC(=O)Cn1nc(C)n2c(cc3cc(F)ccc32)c1=O |  | inconclusive: 28.4%
36 | O=C(Nc1ccnn1C1CCN(C(=O)c2cccc(C(F)(F)F)c2)CC1)C1CC1 |  | inconclusive: -41.9%
37 | O=C(CN1CCOCC1)Nc1ncc(Cc2ccccc2Cl)s1 | inconclusive: 0.651 µM [falling, full curve] | 
38 | COc1ccccc1NC(=O)/C=C/c1ccc(OC)c(S(=O)(=O)N2CCOCC2)c1 |  | inconclusive: -10.8%
39 | CN1CCCC(C(=O)C(C#N)c2ccccc2)C1 (centres undefined) | active: 29.1 µM | 
40 | Cc1cc(C(=O)Nc2cccc3ncccc23)no1 |  | inconclusive: 6.47%
41 | COc1cc(OC)c(NS(=O)(=O)c2coc(C(N)=O)c2)cc1Cl |  | inconclusive: -0.927%
42 | CCn1c(SCC(=O)N2CC(=O)Nc3ccccc32)nnc1-c1ccoc1C | inconclusive: 23.1 µM [activator, single point] | 
43 | CCN(CC)c1ccc(-c2c(C#N)c(N)nc(OC)c2C#N)cc1 | inconclusive: 1.64 µM [activator, full curve] | 
44 | Cc1cc(C)c2c(CCl)cc(=O)oc2c1 |  | inconclusive: 7.54%
45 | COCC(=O)NC1CC(C)(C)Cc2c1cnn2-c1ccc(F)cc1 (centres undefined) |  | inconclusive: -0.547%
46 | Cn1c(=O)c(Oc2ccc(Cl)cc2)c(O)c2ccccc21 |  | inconclusive: 6.65%
47 | CCC(O)c1cc2c(cc1NC(=O)c1ccc(C)cc1)OCCO2 (centres undefined) |  | inconclusive: 13.2%
48 | Cc1ccn(S(=O)(=O)c2ccc(N3CCCC3=O)cc2)n1 |  | inconclusive: 212%
49 | CC(c1ccncn1)N(C)C(=O)c1ccc2oc(Cc3ccccc3)nc2c1 (centres undefined) | inconclusive: 18.4 µM [activator, single point] | 
50 | CCC(C)C(NC(=O)[C@@H](NC(=O)c1ccccc1F)C(C)C)C(=O)OC (some centres undefined) |  | inconclusive: -34%
51 | Cc1cc(NCCc2ccc(Cl)cc2)n2ncnc2n1 | inconclusive: 0.0651 µM [falling, partial curve, poor fit] | 
52 | O=C(O)c1ccc(Cn2cc(C(F)(F)F)ccc2=O)cc1 |  | inconclusive: -14.4%
53 | CC(=O)c1ccc(-n2nnnc2SCC(=O)NC2CCCCC2)cc1 |  | inconclusive: -22%
54 | O=C(CN1CCN(C(=O)c2ccccc2)CC1)Nc1ccc(Cl)cc1F |  | inconclusive: 6.6%

Row | Structure (SMILES) | Potency | lipid storage change, negative = inhibition
55 | O=C(NCC(c1ccco1)N1CCc2ccccc2C1)c1cccc(F)c1 (centres undefined) |  | inconclusive: 17.5%
56 | COc1ccc(C(=O)OCC(=O)N2CCOCC2)cc1S(=O)(=O)N1CCOCC1 | inconclusive: 0.0052 µM [activator, full curve, poor fit] | 
57 | COc1cc(OC)cc(C(=O)Nc2ccc(CN3CCCCC3)cc2)c1 | inconclusive: 29.1 µM [activator, single point] | 
58 | Cc1ccc(N2CC(C(=O)Nc3ccc(S(=O)(=O)N4CCCC4)cc3)CC2=O)cc1C (centres undefined) |  | inconclusive: 38.2%
59 | CC(OC(=O)C1CSC2(C)CCC(=O)N12)C(=O)Nc1cccc(C#N)c1 (centres undefined) |  | inconclusive
60 | CCOc1ccc([N+](=O)[O-])cc1CNC1CCCCCCC1 | inconclusive: 23.1 µM [falling, single point] | 
61 | CSCC(=O)N1CCCC(CO)(CCCc2ccccc2)C1 (centres undefined) |  | inactive
62 | Cc1cc(F)ccc1S(=O)(=O)Nc1ccc(O)c(Sc2ncn[nH]2)c1 | inconclusive: 29.1 µM [falling, single point] | 
63 | Cc1c(C)n(Cc2ccc(F)cc2)c2ccc(C(=O)NCCN3CCOCC3)cc12 | inconclusive: 6.51 µM [activator, single point] | 
64 | O=C1C2CCCN2C(=O)N1CCCCN1CCN(c2ccc(F)cc2)CC1 (centres undefined) |  | inconclusive: -4%
65 | O=C(/C=C/c1ccccc1[N+](=O)[O-])NCCc1ccc(F)cc1 |  | inconclusive: 45.7%
66 | COc1ccccc1CC(=O)NC1CCC(C)CC1 (centres undefined) |  | inconclusive: 23.9%
67 | CN(C)S(=O)(=O)N1CCC(Oc2cccc(C(=O)N3CCSCC3)c2)CC1 |  | inconclusive: 0.133%
68 | CN1CC=C2C(C#N)=C(N)C(C#N)(C#N)C(c3cccc(Cl)c3Cl)C2C1 (centres undefined) |  | inconclusive: 59.4%
69 | Nc1nonc1-n1nnc(C(=O)N/N=C/c2cccc(F)c2)c1-c1ccccc1 |  | inconclusive: 78.9%
70 | CC(C)COc1ccc(C(=O)Nc2sc3c(c2C(=O)O)CC(C)(C)OC3)cc1 |  | inconclusive: -1.48%
71 | COc1ccc(N2CC(C)Cn3c2nc2c3c(=O)n(CCN3CCOCC3)c(=O)n2C)cc1 (centres undefined) | active: 2.06 µM | 
72 | CCOC(=O)c1cnn(-c2nc3c(C)cccc3s2)c1C(F)(F)F | inconclusive: 10.3 µM [activator, partial curve] | 
73 | CC(C)C(=O)NC(=S)Nc1ccc(S(=O)(=O)Nc2nccs2)cc1 |  | inconclusive: 9.25%
74 | CCOCCCNC(=O)Cc1ccc(OC)c(OC)c1 |  | inconclusive: 51.9%
75 | Cc1nc(Nc2ccc(S(N)(=O)=O)cc2)oc1C |  | inconclusive: -34.2%
76 | O=C(NCC1COc2ccccc2O1)c1ccc(F)c(S(=O)(=O)N2CCOCC2)c1 (centres undefined) |  | inconclusive
77 | O=C(OCC(=O)N1CCCC1)c1cc(F)c(F)cc1Cl | inconclusive: 32.6 µM [activator, partial curve, poor fit] | 
78 | Cc1ccc2[nH]c(=S)cc(C)c2c1 |  | inconclusive: 19.5%
79 | CC(=O)C1=C(c2ccccc2)NC(=S)NC1c1cc(Cl)c(OC(C)C)c(Cl)c1 (centres undefined) |  | inconclusive: -14%
